The whole screen tested about 340,000 compounds, of which about 170 (0.05%) were called active. Inconclusive means that the source gave no clear call. Such entries were picked first, then a sample of the others. Calls come from the whole dose curve; as a rule, active = well fitted inhibition curve with a large enough effect in the signal ratio, with a control signal flat (not every such curve was filed as active); inconclusive = small, poorly fitted or top-dose-only effect, or effect the other way, or a change in a side signal; inactive = flat fitted curve, though single readings scatter; the % refers to the signal ratio. A potency beside an inconclusive call is a rough fit, not a confirmed value.
experiment: qHTS Assay to Find Inhibitors of Chronic Active B-Cell Receptor Signaling; conditions: ABC-DLBCL IkBa-CBG/CBR reporter, luminescence ratio (green luciferase fused to IkBa over red control in TMD8 lymphoma cells), 4 h; activity change, negative = inhibition: at 46.1 µM (top of the series);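 for activity change, negative = inhibition: plate controls were basal doxycycline-induced cells for no effect and cells given 10 µM MG132 for full effect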
Summary of the method: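 Cell line TMD8 (human ABC DLBCL), stably expressing tet-inducible CBG68-IkBa fusion and CBR; IMDM/0.5% FBS; cpd up to 46 uM; dox induction, 4 h, 37C/5% CO2; dual luminescence; green/red ratio; MG132 control.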
Potency is the fitted concentration of half-maximal effect.

Structure (SMILES)	activity change, negative = inhibition	Potency
Cc1ccc(S(=O)(=O)NCCNC(=O)c2cc(OCC(F)(F)F)ccc2OCC(F)(F)F)cc1	inconclusive: 5.3%	–
CC(/C=N/NC(=O)c1ccco1)=C\c1ccccc1	–	inconclusive: 25.1 µM [falling, partial curve]
O=C(COc1ccccc1)NCCSCc1ccco1	inconclusive: 8.96%	–
COc1cc(/C=C\C(=O)NCc2ccc3c(c2)cc(C)n3C)cc(OC)c1OC	inconclusive: -15.3%	–
CCN1CCCC1CNC(=O)Cn1cc2c(n1)CCC(C)C2 (centres undefined)	–	inconclusive: 5.17 µM [falling, partial curve]
CC(=O)c1cc2c(cc1N/C(=N/S(=O)(=O)c1ccc(Cl)cc1)c1ccc(F)cc1)OCO2	–	inconclusive: 2.82 µM [rising, full curve, poor fit]
COC(=O)CCC(=O)N(CCN(C(=O)CCC(=O)OC)c1ccccc1)c1ccccc1	inconclusive: 0.0926%	–
C/C(=N\NC(=O)c1ccccc1O)c1ccc(Br)s1	–	inconclusive: 0.92 µM [rising, full curve, poor fit]
CCn1nc(C(=O)Nc2nc3ccccc3[nH]2)c2ccccc2c1=O	–	inconclusive: 18.4 µM [falling, single point]
CCCCCCC1CC(CC(=O)Nc2ccc([N+](=O)[O-])cc2)C(=O)O1 (centres undefined)	inconclusive: 2%	–
O=C(O)C(Cc1cn[nH]n1)=NO	inactive: 0.103%	–
COc1ncccc1-c1nnn(-c2ccc(F)cc2)n1	–	inconclusive: 17.8 µM [falling, partial curve, poor fit]
Cc1ccc2c(c1)NC(=O)C(CC(=O)NCCCN1CCCCC1)O2 (centres undefined)	inconclusive: 0.767%	–
COc1cc(CNCc2ccccc2)c(Br)cc1OC1CCCC1	inconclusive: 0.438%	–
O=c1[nH]c2c(c3c1CCCC3)CCCC2	inconclusive: 9.84%	–
COc1ccc([C@H]2CC(=O)C=C(c3cccc4c3sc3ccccc34)C2)cc1OC	–	inconclusive: 20.6 µM [rising, partial curve, poor fit]
COCCNc1ccc([N+](=O)[O-])cc1C(=O)Nc1cccc(C)n1	inconclusive: -11.9%	–
Cc1noc(C(=O)Nc2sc3c(c2C#N)CCC3)c1Cl	–	inconclusive: 0.184 µM [rising, partial curve, poor fit]
CC(=O)N1CCc2c(sc(NC(=O)CS(=O)(=O)c3ccc(F)cc3)c2C#N)C1	inactive: 8.24%	–
COc1cc(CCCN2C(=S)NC[C@@H]2c2ccccc2)cc(OC)c1OC	–	inconclusive: 11.2 µM [falling, partial curve, poor fit]

Structure (SMILES)	activity change, negative = inhibition	Potency
COc1ccccc1NC(=O)c1ccc(-c2ccccc2F)o1	inconclusive: -20.1%	–
COc1ccc(C2C(C(=O)c3ccc(C)o3)=C(O)C(=O)N2Cc2cccnc2)cc1OC (centres undefined)	inactive: 3.93%	–
O=C(COC(=O)c1ccc(Cl)c([N+](=O)[O-])c1)Nc1ccccc1OC(F)F	inconclusive: 12.7%	–
C=CCOc1c(Cl)cc(CNc2ccc(C)c(Cl)c2)cc1OC	–	inconclusive: 2.59 µM [falling, full curve]
COc1ccc(C=O)cc1COc1ccc(C)cc1[N+](=O)[O-]	–	inconclusive: 12.6 µM [falling, partial curve, poor fit]
COc1ccccc1NC(=O)c1cnc(SCC(=O)NCC2CCCO2)n(C)c1=O (centres undefined)	–	inconclusive: 16.4 µM [falling, partial curve]
COc1ccccc1C(=O)NNC1=NS(=O)(=O)c2ccccc21	–	inconclusive: 15.8 µM [falling, partial curve, poor fit]
COc1ccc(-c2cn3cc(C)ccc3n2)cc1OC	inactive: 7.06%	–
CCN(CC(=O)NCc1cccs1)C(=O)CCOc1ccccc1C	inconclusive: 1.58%	–
O=C(CC(Sc1ccccc1)c1cccs1)c1ccco1 (centres undefined)	–	inconclusive: 35.5 µM [falling, partial curve, poor fit]
O=C(NNc1ccc([N+](=O)[O-])cc1)c1ccccc1F	–	inconclusive: 25.1 µM [falling, single point]
COCCCn1c(=O)c2ccccc2n(CC(=O)N2CCCc3ccccc32)c1=O	inactive: 2.92%	–
C=CCOc1ccccc1CNc1ccccc1C	inconclusive: 5.98%	–
CCCN(CC(=O)Nc1ccccc1C)C(=O)COC(=O)CSc1ccc([N+](=O)[O-])cc1	inconclusive: -25.2%	–
CCc1ccc(/C=C2\SC(=S)N(CCC(=O)N3CCN(C)CC3)C2=O)cc1	–	inconclusive: 35.5 µM [falling, single point]
CS(=O)(=O)N(Cc1ccc(C(=O)NN=C2CCCC2)cc1)c1ccccc1	–	inconclusive: 18.4 µM [falling, partial curve]
Cc1ccccc1NC(=O)/C(=C\c1cccs1)NC(=O)c1ccccc1	inactive: -3.61%	–
N=C1C(c2nc(-c3ccc(Cl)cc3)cs2)=C(O)CN1NC(=O)c1ccc(O)cc1	inconclusive: 4.42%	–
CCOc1ccc(NC(=O)c2ccc(OCC3CCCO3)cc2)cc1S(=O)(=O)N(CC)CC (centres undefined)	inactive: -0.532%	–

Quoted at random: 2 entries already listed.
Structure (SMILES)	activity change, negative = inhibition	Potency
COc1ccccc1NC(=O)c1cnc(SCC(=O)NCC2CCCO2)n(C)c1=O (centres undefined)	–	inconclusive: 16.4 µM [falling, partial curve]
O=C(NNc1ccc([N+](=O)[O-])cc1)c1ccccc1F	–	inconclusive: 25.1 µM [falling, single point]

Source: PubChem BioAssay AID493014 (National Center for Advancing Translational Sciences (NCATS), 2011)
